Results taken from patent US20130171133A1.
No constants are given. Whether binding was seen depends on the method and setting. For part of these data: In cells and extracts the contact can be indirect.

Assays:
[1] = target: EGFR (from SK-OV-3 derived cell lysates) (UniProt P00533); experiment: immunoprecipitation
[2] = target: EGFR (from SK-OV-3 derived cell lysates) (UniProt P00533); experiment: restated in the text on degradation
[3] = target: EGFR (from SK-OV-3 derived cell lysates) (UniProt P00533); experiment: FIG. 19 legend, restated
[4] = target: EGFR (from SK-OV-3 derived cell lysates) (UniProt P00533); experiment: co-IP
[5] = target: EGFR (from SK-OV-3 derived cell lysates) (UniProt P00533); experiment: co-IP, FIG. 2 legend
[6] = target: EGFR (from SK-OV-3 derived cell lysates) (UniProt P00533); experiment: reciprocal co-IP, SK-OV-3 derived cell lysates

Measured: binding

B1: OPCML (opioid binding protein cell adhesion molecule), human, expressed in cells (stably transfected SK-OV-3 lines BKS2.1 and SKOBS-3.5) (protein)
chain: GVPVRSGDATFPKAMDNVTVRQGESATLRCTIDDRVTRVAWLNRSTILYAGNDKWSIDPRVIILVNTPTQYSIMIQNVDVYDEGPYTCSVQTDNHPKTSRVHLIVQVPPQIMNISSDITVNEGSSVTLLCLAIGRPEPTVTWRHLSVKEGQGFVSEDEYLEISDIKRDQSGEYECSALNDVAAPDVRKVKITVNYPPYISKAKNTGVSVGQKGILSCEASAVPMAEFQWFKEETRLATGLDGMRIENKGRMSTLTFFNVSEKDYGNYTCVATNKLGNTNASITLYGPGAVIDGVN
modifications: GPI anchor at N322; N-linked glycosylation
no binding: all assays above
